Laboratory results taken from PubChem BioAssay.
The list shows a part of the results. The main result of the screen is listed elsewhere. These columns were measured beside it and carry no call.

Test: PubChem AID 1586
Settings: yeast two-hybrid polyglutamine protein interaction, reporter readout; measured here: averaged growth delta OD

Structure (SMILES)	signal change (36 h minus 0 h)
CCN(CC)CCCC(C)Nc1c2ccc(Cl)cc2nc2ccc(OC)cc12 (centres undefined)	0.0362
NC(=NCCCCCCN=C(N)/N=C(\N)Nc1ccc(Cl)cc1)/N=C(\N)Nc1ccc(Cl)cc1	0.0153
C=CCSCC1Nc2cc(Cl)c(S(N)(=O)=O)cc2S(=O)(=O)N1 (centres undefined)	0.0459
NC(N)=NC(=O)c1nc(Cl)c(N)nc1N	0.04
CC1(C)OC(=O)NC1=O	0.0303
C#C[C@]1(O)CCC2C3CCC4=CC(=O)CC[C@@H]4C3CC[C@@]21CC (some centres undefined)	0.187
N[C@H](Cc1ccccc1)C(=O)O	0.111
COc1c2occc2c(OC)c2c(=O)cc(C)oc12	0.361
NC(COCc1ccccc1)C(=O)O (centres undefined)	0.113
Cc1ccc(C(C)C)cc2c(C)ccc1-2	0.343
CC(C)[N+](C)(CCOC(=O)C1c2ccccc2Oc2ccccc21)C(C)C	0.547
C[C@@H]1OC(Oc2c(-c3ccc(O)c(O)c3)oc3cc(O)cc(O)c3c2=O)[C@H](O)[C@H](O)[C@H]1O (some centres undefined)	0.147
Cc1c(NC(C)C)c(=O)n(-c2ccccc2)n1C	0.0945
Nc1ccc(S(=O)(=O)Nc2ccnn2-c2ccccc2)cc1	0.0911
C[N+]1(C)C2CC(OC(=O)[C@@H](CO)c3ccccc3)CC1C1OC12 (some centres undefined)	0.185
CCC(Cc1c(I)cc(I)c(N)c1I)C(=O)O (centres undefined)	0.063
O=C(O)c1cc(O)ccc1O	0.182
CCN(CC)CCCC(C)Nc1ccnc2cc(Cl)ccc12 (centres undefined)	0.22
CC1=C(/C=C/C(C)=C/C=C/C(C)=C/CO)C(C)(C)CCC1	0.19
c1ccc2[nH]c(-c3cscn3)nc2c1	0.0491

Structure (SMILES)	signal change (36 h minus 0 h)
CC(C)OC(=O)C(C)(C)Oc1ccc(C(=O)c2ccc(Cl)cc2)cc1	0.15
CCN1CCCC1CNC(=O)c1cc(S(N)(=O)=O)ccc1OC (centres undefined)	0.0625
COc1ccccc1OCC(O)COC(N)=O (centres undefined)	0.0658
CCC1(C)CC(=O)NC1=O (centres undefined)	0.172
CN1CCN(C2=Nc3cc(Cl)ccc3Nc3ccccc32)CC1	0.149
C#C[C@]1(O)CCC2C3CCC4=Cc5oncc5C[C@]4(C)C3CC[C@@]21C (some centres undefined)	0.0531
CC12CC3CC(C)(C1)CC(N)(C3)C2	0.0866
CCc1cc(C(N)=S)ccn1	0.0364
O=c1c(-c2ccc(O)cc2)coc2cc(O)ccc12	0.486
O=C(O)c1cccnc1C(=O)O	0.0925
COc1cc(OC)c2ccc(=O)oc2c1	0.158
CC(C)NCC(O)c1ccc(O)c(O)c1 (centres undefined)	0.156
CC(C)NCC(O)COc1ccc(CC(N)=O)cc1 (centres undefined)	0.181
COC(=O)C(N)CS (centres undefined)	0.0614
C[C@]12C=CC(=O)C=C1CCC1C3C[C@@H](O)[C@](O)(C(=O)CO)[C@@]3(C)C[C@H](O)[C@@]12F (some centres undefined)	0.199
O=C(O)c1cc(=O)c2c(OCC(O)COc3cccc4oc(C(=O)O)cc(=O)c34)cccc2o1	0.0763
CCN1CCCC(OC(=O)C(c2ccccc2)c2ccccc2)C1 (centres undefined)	0.121
CC[C@]12CCCN3CCc4c(n(c5ccccc45)C(=O)C1)[C@@H]32	0.122
CC(C)Oc1ccc2c(=O)cc(-c3ccccc3)oc2c1	0.166

Reformatted as comma-separated lines: part of the list above.
Structure (SMILES),signal change (36 h minus 0 h)
CC[C@]12CCCN3CCc4c(n(c5ccccc45)C(=O)C1)[C@@H]32,0.122
CC(C)Oc1ccc2c(=O)cc(-c3ccccc3)oc2c1,0.166
